These are yes or no findings as the source states them, for the method shown. A result given as binding can be weak or reduced; the word gives no strength. For some of these results: Where a sequence is shown, tags or fusion partners need not be part of it. For some of these results: Binding seen in cells or lysates may run through a third protein.

Test [1] deals with Pst_12806-cEYFP (Puccinia striiformis f. sp. tritici). The experiment in a line: split reporter; BiFC with nEYFP and cEYFP halves (pSATN vectors), agroinfiltrated N. benthamiana leaves, OD600 0.5, confocal microscopy two days after inoculation.
The target of test [2] is Pst_12806:GFP (pCAMBIA1302) (Puccinia striiformis f. sp. tritici). Put plainly: co-IP; Pst_12806:GFP, TaISP:HA and P19 co-expressed in N. benthamiana; leaf extract on magnetic beads with anti-GFP, 4 °C 4 h; blots with anti-GFP and anti-HA.
In test [3] the target is Pst_12806 without signal peptide, Gal4 binding domain fusion (pGBKT7-Pst_12806) (Puccinia striiformis f. sp. tritici). Put plainly: two-hybrid; Matchmaker GAL4 system; Pst_12806 as bait against a cDNA library of Pst-infected wheat leaves; six chloroplast-related hits tested again with Pst_12806 (method of the re-test not named).
Test [4] has the same target. The experiment in a line: two-hybrid; GAL4 system, pairwise; pGBKT7-Pst_12806 (without signal peptide) with pGADT7 preys in yeast AH109; growth on SD-LWH or SD-LWHA and LacZ activity with X-α-gal.

B1: TaISP-nEYFP (protein, UniProt Q7X9A6 50-222)
chain: ADRVPDMSKRELMNLLLLGAISLPTFGMLVPYGSFLVPAGSGSNAGGVAAKDKLGNDILVEDWLKTHGPNDRTLAQGLKGDPTYLVVESDKTLATYGINAVCTHLGCVVPWNAAENKFLCPCHGSQYNNQGKVVRGPAPLSLALVHADVDDGKVVFVPWVETDFRTGDNPWWK
On to B1, for which the binding entry in test [1] was “binds”.

B2: TaISP:HA (pICH86988) (protein, UniProt Q7X9A6 50-222)
chain: ADRVPDMSKRELMNLLLLGAISLPTFGMLVPYGSFLVPAGSGSNAGGVAAKDKLGNDILVEDWLKTHGPNDRTLAQGLKGDPTYLVVESDKTLATYGINAVCTHLGCVVPWNAAENKFLCPCHGSQYNNQGKVVRGPAPLSLALVHADVDDGKVVFVPWVETDFRTGDNPWWK
Take B2: the binding entry in test [2] is on record as “binds”.

B3: TaISP, Gal4 activation domain fusion (pGADT7-TaISP) (protein, UniProt Q7X9A6 1-222)
chain: MASTALSTASNPTQLCRTRASSLCKPVKGLGFGRERIPRNITCMAGSISADRVPDMSKRELMNLLLLGAISLPTFGMLVPYGSFLVPAGSGSNAGGVAAKDKLGNDILVEDWLKTHGPNDRTLAQGLKGDPTYLVVESDKTLATYGINAVCTHLGCVVPWNAAENKFLCPCHGSQYNNQGKVVRGPAPLSLALVHADVDDGKVVFVPWVETDFRTGDNPWWK
Regarding B3, the binding entry in test [3] and in test [4] was “binds” throughout.
